Laboratory results from PMC5824887, “A family of unconventional deubiquitinases with modular chain specificity determinants” (Nature Communications, 2018).
Substitutions are numbered along the chain they refer to. No constants are given. Whether binding was seen depends on the method and setting. Binding seen in cells or lysates may run through a third protein. Here binding means that the protein was enriched with, or labelled near, the bait; the list need not be complete. Sequences can lack the tags named with a protein.

By UniProt entry, the sequences of proteins in these tests, tags left out.
UniProt O95071: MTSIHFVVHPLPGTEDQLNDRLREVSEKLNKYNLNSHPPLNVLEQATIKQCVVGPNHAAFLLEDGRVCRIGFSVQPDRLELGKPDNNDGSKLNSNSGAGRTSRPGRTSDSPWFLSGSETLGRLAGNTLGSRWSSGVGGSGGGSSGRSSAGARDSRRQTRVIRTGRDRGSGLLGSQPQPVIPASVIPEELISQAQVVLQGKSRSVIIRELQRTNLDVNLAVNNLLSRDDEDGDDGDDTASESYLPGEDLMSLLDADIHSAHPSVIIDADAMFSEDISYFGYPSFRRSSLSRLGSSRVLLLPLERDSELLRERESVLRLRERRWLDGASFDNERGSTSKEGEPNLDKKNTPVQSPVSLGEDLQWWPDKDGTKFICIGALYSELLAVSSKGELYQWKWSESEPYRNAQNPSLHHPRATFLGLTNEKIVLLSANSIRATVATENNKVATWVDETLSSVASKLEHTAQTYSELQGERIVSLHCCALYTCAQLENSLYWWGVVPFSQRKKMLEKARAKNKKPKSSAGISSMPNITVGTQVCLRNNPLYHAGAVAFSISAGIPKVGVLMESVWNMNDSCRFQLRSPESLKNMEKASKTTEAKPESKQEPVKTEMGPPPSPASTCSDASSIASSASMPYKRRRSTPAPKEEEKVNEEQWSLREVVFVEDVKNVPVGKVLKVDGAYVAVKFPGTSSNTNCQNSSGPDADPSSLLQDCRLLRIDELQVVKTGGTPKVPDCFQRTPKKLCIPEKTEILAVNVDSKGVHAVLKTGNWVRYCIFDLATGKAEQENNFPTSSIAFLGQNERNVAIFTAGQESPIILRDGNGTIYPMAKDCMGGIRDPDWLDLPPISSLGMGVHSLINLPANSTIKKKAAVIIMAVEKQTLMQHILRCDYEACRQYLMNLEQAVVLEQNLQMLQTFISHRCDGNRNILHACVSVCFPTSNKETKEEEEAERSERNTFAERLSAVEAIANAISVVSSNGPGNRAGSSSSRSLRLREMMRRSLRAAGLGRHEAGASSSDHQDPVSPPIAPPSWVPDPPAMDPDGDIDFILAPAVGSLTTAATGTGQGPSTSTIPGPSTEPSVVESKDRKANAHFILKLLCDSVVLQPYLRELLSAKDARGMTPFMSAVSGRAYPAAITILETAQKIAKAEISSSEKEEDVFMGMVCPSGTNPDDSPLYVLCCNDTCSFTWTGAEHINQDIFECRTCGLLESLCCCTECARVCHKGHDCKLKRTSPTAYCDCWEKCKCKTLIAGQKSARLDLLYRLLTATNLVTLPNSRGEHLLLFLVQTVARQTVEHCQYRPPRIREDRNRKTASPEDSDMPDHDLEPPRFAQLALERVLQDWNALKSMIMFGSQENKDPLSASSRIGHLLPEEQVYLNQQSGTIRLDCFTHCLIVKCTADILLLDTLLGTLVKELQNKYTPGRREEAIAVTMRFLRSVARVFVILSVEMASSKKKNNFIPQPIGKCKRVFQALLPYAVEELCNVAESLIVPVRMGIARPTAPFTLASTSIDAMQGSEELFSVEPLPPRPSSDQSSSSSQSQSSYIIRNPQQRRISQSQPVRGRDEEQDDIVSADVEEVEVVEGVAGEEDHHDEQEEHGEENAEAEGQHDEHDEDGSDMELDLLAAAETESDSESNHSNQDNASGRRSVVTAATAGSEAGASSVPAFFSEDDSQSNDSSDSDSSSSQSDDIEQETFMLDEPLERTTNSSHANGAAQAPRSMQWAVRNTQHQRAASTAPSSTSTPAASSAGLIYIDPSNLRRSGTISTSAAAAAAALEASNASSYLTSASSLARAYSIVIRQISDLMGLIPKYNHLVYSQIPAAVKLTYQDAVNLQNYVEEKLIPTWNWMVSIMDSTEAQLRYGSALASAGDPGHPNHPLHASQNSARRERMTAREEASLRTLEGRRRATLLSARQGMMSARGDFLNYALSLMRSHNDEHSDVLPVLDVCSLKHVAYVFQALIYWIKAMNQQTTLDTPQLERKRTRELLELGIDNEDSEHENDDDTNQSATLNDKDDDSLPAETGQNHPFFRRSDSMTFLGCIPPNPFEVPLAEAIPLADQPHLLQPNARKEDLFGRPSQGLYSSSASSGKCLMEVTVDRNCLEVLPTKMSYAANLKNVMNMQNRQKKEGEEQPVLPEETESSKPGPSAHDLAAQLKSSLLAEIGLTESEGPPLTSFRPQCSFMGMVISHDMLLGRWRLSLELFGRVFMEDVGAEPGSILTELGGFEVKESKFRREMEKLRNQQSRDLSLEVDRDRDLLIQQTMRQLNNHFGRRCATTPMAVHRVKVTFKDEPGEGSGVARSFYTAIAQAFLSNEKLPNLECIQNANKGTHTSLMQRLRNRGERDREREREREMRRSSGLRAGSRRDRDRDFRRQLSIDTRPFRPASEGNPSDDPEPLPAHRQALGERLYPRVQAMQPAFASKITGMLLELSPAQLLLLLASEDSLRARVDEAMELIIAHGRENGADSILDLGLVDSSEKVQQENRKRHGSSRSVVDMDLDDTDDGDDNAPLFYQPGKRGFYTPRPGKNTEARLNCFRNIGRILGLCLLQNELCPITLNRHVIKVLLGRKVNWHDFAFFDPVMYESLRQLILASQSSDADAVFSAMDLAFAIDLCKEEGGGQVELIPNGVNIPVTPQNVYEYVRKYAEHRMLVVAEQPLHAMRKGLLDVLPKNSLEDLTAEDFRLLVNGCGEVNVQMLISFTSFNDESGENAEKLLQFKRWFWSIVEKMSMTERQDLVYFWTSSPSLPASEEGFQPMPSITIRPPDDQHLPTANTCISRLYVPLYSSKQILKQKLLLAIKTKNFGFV
UniProt Q15170: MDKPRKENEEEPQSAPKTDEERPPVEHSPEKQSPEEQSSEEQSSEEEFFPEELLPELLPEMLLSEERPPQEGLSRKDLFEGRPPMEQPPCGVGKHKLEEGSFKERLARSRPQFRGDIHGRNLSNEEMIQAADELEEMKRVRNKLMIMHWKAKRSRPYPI
UniProt P51784: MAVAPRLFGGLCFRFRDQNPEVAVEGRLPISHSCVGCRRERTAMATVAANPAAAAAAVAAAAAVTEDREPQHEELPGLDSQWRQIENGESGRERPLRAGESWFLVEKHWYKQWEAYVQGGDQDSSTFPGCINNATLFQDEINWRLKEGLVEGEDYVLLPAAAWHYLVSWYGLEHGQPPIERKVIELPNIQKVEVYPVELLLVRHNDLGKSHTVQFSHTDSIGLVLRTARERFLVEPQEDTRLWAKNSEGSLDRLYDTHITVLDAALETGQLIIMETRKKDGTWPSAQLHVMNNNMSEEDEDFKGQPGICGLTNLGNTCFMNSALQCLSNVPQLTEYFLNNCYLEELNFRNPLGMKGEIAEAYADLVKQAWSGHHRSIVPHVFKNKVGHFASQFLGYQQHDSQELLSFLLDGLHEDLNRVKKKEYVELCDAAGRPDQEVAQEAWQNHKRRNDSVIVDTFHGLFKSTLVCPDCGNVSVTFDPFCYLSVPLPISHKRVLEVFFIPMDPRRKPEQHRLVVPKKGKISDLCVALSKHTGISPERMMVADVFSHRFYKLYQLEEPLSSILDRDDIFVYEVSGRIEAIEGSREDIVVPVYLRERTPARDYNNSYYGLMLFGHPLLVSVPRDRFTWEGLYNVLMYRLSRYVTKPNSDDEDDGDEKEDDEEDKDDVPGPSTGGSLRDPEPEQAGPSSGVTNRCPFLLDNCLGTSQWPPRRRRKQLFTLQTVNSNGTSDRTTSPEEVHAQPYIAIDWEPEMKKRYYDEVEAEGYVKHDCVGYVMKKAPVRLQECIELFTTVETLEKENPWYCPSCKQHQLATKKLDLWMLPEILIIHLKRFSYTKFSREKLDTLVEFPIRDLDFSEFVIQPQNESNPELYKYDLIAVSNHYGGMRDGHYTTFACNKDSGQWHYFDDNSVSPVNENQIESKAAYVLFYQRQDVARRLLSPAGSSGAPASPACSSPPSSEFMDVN

Legend:
[1] = molecular target: T1, 3xFLAG-ZUFSP C360A (human) (UniProt Q96AP4); assay: affinity purification with mass spectrometry; 3xFLAG-ZUFSP immunopurified on anti-FLAG M2 beads from cell lysate (20 mM TRIS pH 7, 150 mM NaCl, 0.1% NP-40), eluted with 3xFLAG peptide; label-free LC-MS/MS against uninduced/untransfected controls; no nuclease
T1 sequence: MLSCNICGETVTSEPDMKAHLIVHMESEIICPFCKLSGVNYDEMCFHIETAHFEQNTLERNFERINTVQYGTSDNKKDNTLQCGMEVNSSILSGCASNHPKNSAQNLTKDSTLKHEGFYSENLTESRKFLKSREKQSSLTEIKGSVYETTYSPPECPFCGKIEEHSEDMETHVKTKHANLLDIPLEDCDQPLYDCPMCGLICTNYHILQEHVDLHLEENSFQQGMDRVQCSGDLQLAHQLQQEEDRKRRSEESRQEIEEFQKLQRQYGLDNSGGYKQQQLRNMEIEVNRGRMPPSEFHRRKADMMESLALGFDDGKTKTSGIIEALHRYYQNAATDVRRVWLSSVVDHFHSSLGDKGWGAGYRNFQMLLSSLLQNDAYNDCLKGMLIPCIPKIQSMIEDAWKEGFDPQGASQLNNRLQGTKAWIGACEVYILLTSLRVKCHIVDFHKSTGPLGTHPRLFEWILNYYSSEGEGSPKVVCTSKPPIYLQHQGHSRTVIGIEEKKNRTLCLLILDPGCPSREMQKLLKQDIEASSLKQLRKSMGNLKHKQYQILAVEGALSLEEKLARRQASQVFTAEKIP

[2] = molecular target: T2, 3xFLAG-ZUFSP, full length, wild type (human) (UniProt Q96AP4); assay: as above
T2 sequence: T1 sequence with A360C

[3] = molecular target: T2, 3xFLAG-ZUFSP, full length, wild type (human); assay: affinity purification with mass spectrometry; as the FLAG immunopurification with LC-MS/MS, repeated in the presence of nuclease

## ubiquitin ligase UBR5 (from UniProt O95071 1-2799) (enzyme)
[1]
  binding: binds
[2]
  binding: binds

## uncharacterized protein TCEAL1 (from UniProt Q15170 1-159)
[3]
  binding: binds
[1]
  binding: binds
[2]
  binding: binds

## deubiquitinase USP11 (from UniProt P51784 1-963) (enzyme)
[3]
  binding: binds
[1]
  binding: binds
[2]
  binding: binds
